This is an account of results in paper PMC11867700, “TANGO2 is an acyl-CoA binding protein” (The Journal of Cell Biology, 2025).

The assay concerns the target TANGO2 isoform 1, Flag-tagged and mScarlet-tagged copies co-expressed in HepG2 cells (human) (UniProt Q6ICL3). Briefly: co-IP; HepG2 cells cotransfected with TANGO2.Flag and TANGO2.mScarlet, 48 h; lysis in 50 mM Tris-HCl, 50 mM NaCl, 1% Triton X-100, 1 mM EDTA; anti-Flag agarose, 4°C, 1 h; blot against RFP.

No constants are given. Whether binding was seen depends on the method and setting. In cells and extracts the contact can be indirect. Some results given as binding are weak or reduced against the parent protein; the word gives no strength. Where a sequence is shown, tags or fusion partners need not be part of it.

B1: TANGO2 isoform 1-Flag (TANGO2.Iso1-Flag), purified (natural protein, human, UniProt Q6ICL3-1 1-276, looked up)
chain: MCIIFFKFDPRPVSKNAYRLILAANRDEFYSRPSKLADFWGNNNEILSGLDMEEGKEGGTWLGISTRGKLAALTNYLQPQLDWQARGRGELVTHFLTTDVDSLSYLKKVSMEGHLYNGFNLIAADLSTAKGDVICYYGNRGEPDPIVLTPGTYGLSNALLETPWRKLCFGKQLFLEAVERSQALPKDVLIASLLDVLNNEEAQLPDPAIEDQGGEYVQPMLSKYAAVCVRCPGYGTRTNTIILVDADGHVTFTERSMMDKDLSHWETRTYEFTLQS
notes: TANGO2 isoform 1, human, UniProt Q6ICL3-1; C-terminal in-frame fusion with the Flag peptide; also called TANGO2.Flag; purified TANGO2
For the molecule B1, the binding entry is listed as “binds”.
